Reference: patent EP0555488A1, “PYRIMIDINE OR TRIAZINE DERIVATIVE AND HERBICIDE” (KUMIAI CHEMICAL INDUSTRY CO., LTD., priority 1991, dated 1993)
The name of at least one read-out is uncertain.

How the values were obtained:
Format in all cases: in vivo
pale smartweed (Po) [1] = assay: Test Example 2: herbicidal effect test by upland field soil treatment; details: wettable powder, 100 g/10 a active ingredient, evaluated 21st day after treatment
rice flatsedge (Ci) [2] = assay: as above; details: wettable powder, 100 g/10 a active ingredient, evaluated 21st day after treatment
barnyardgrass (Ec) = assay: Test Example 1: herbicidal effect test by paddy field soil treatment; details: flooded 3 cm, wettable powder, 100 g/10 a active ingredient, evaluated 21st day after treatment
pale smartweed (Po) [3] = assay: Test Example 3: herbicidal effect test by upland field foliage treatment; details: upland field foliage treatment of plants cultured 2 weeks, wettable powder, 100 g/10 a active ingredient, evaluated 14th day after treatment
rice flatsedge (Ci) [4] = assay: as above; details: upland field foliage treatment of plants cultured 2 weeks, wettable powder, 100 g/10 a active ingredient, evaluated 14th day after treatment
[5] = test system: edible barnyardgrass (Ec); assay: Test Example 2: herbicidal effect test by upland field soil treatment; details: wettable powder, 100 g/10 a active ingredient, evaluated 21st day after treatment
monochoria (Mo) = assay: Test Example 1: herbicidal effect test by paddy field soil treatment; details: flooded 3 cm, wettable powder, 100 g/10 a active ingredient, evaluated 21st day after treatment
lambsquarters (Ch) [6] = assay: Test Example 3: herbicidal effect test by upland field foliage treatment; details: upland field foliage treatment of plants cultured 2 weeks, wettable powder, 100 g/10 a active ingredient, evaluated 14th day after treatment
slender amaranth (Am) [7] = assay: Test Example 2: herbicidal effect test by upland field soil treatment; details: wettable powder, 100 g/10 a active ingredient, evaluated 21st day after treatment
[8] = test system: edible barnyardgrass (Ec); assay: Test Example 3: herbicidal effect test by upland field foliage treatment; details: upland field foliage treatment of plants cultured 2 weeks, wettable powder, 100 g/10 a active ingredient, evaluated 14th day after treatment
slender amaranth (Am) [9] = assay: as above; details: upland field foliage treatment of plants cultured 2 weeks, wettable powder, 100 g/10 a active ingredient, evaluated 14th day after treatment
bulrush (Sc) = assay: Test Example 1: herbicidal effect test by paddy field soil treatment; details: flooded 3 cm, wettable powder, 100 g/10 a active ingredient, evaluated 21st day after treatment
lambsquarters (Ch) [10] = assay: Test Example 2: herbicidal effect test by upland field soil treatment; details: wettable powder, 100 g/10 a active ingredient, evaluated 21st day after treatment

## CC=Cc1cccc(Oc2nc(OC)cc(OC)n2)c1C(=O)O [Compound No. 2, 2-[(4,6-dimethoxypyrimidin-2-yl)oxy]-6-(1-propenyl)benzoic acid]
Pale smartweed (Po) [1]
  Herbicidal effect Po: 5 (at least 90% control)
Rice flatsedge (Ci) [2]
  Herbicidal effect Ci: 5 (at least 90% control)
Barnyardgrass (Ec)
  Herbicidal effect Ec: 5 (at least 90% control)
Pale smartweed (Po) [3]
  Herbicidal effect Po: 5 (at least 90% control)
Rice flatsedge (Ci) [4]
  Herbicidal effect Ci: 5 (at least 90% control)
[5]
  Herbicidal effect Ec: 5 (at least 90% control)
Monochoria (Mo)
  Herbicidal effect Mo: 5 (at least 90% control)
Lambsquarters (Ch) [6]
  Herbicidal effect Ch: 5 (at least 90% control)
Slender amaranth (Am) [7]
  Herbicidal effect Am: 5 (at least 90% control)
[8]
  Herbicidal effect Ec: 5 (at least 90% control)
Slender amaranth (Am) [9]
  Herbicidal effect Am: 5 (at least 90% control)
Bulrush (Sc)
  Herbicidal effect Sc: 5 (at least 90% control)
Lambsquarters (Ch) [10]
  Herbicidal effect Ch: 5 (at least 90% control)

## CCCC#Cc1cccc(Oc2nc(OC)cc(OC)n2)c1C(=O)O [Compound No. 53, diisopropylammonium 2-[(4,6-dimethoxypyrimidin-2-yl)oxy]-6-(1-pentynyl)benzoate]
Pale smartweed (Po) [1]
  Herbicidal effect Po: 5 (at least 90% control)
Rice flatsedge (Ci) [2]
  Herbicidal effect Ci: 5 (at least 90% control)
Barnyardgrass (Ec)
  Herbicidal effect Ec: 5 (at least 90% control)
Pale smartweed (Po) [3]
  Herbicidal effect Po: 5 (at least 90% control)
Rice flatsedge (Ci) [4]
  Herbicidal effect Ci: 5 (at least 90% control)
[5]
  Herbicidal effect Ec: 5 (at least 90% control)
Monochoria (Mo)
  Herbicidal effect Mo: 5 (at least 90% control)
Lambsquarters (Ch) [6]
  Herbicidal effect Ch: 5 (at least 90% control)
Slender amaranth (Am) [7]
  Herbicidal effect Am: 5 (at least 90% control)
[8]
  Herbicidal effect Ec: 5 (at least 90% control)
Slender amaranth (Am) [9]
  Herbicidal effect Am: 5 (at least 90% control)
Bulrush (Sc)
  Herbicidal effect Sc: 5 (at least 90% control)
Lambsquarters (Ch) [10]
  Herbicidal effect Ch: 5 (at least 90% control)

## CCCC#Cc1cccc(Oc2nc(OC)cc(OC)n2)c1C(=O)OC [Compound No. 54, methyl 2-[(4,6-dimethoxypyrimidin-2-yl)oxy]-6-(1-pentynyl)benzoate]
Pale smartweed (Po) [1]
  Herbicidal effect Po: 5 (at least 90% control)
Rice flatsedge (Ci) [2]
  Herbicidal effect Ci: 3 (at least 50% and less than 70%)
Barnyardgrass (Ec)
  Herbicidal effect Ec: 5 (at least 90% control)
[5]
  Herbicidal effect Ec: 3 (at least 50% and less than 70%)
Monochoria (Mo)
  Herbicidal effect Mo: 5 (at least 90% control)
Slender amaranth (Am) [7]
  Herbicidal effect Am: 5 (at least 90% control)
Bulrush (Sc)
  Herbicidal effect Sc: 5 (at least 90% control)
Lambsquarters (Ch) [10]
  Herbicidal effect Ch: 5 (at least 90% control)

## CC=Cc1cccc(Oc2nc(OC)cc(OC)n2)c1C(=O)OCC#N [compound 15]
Pale smartweed (Po) [1]
  Herbicidal effect Po: 5 (at least 90% control)
Rice flatsedge (Ci) [2]
  Herbicidal effect Ci: 5 (at least 90% control)
Pale smartweed (Po) [3]
  Herbicidal effect Po: 5 (at least 90% control)
Rice flatsedge (Ci) [4]
  Herbicidal effect Ci: 5 (at least 90% control)
[5]
  Herbicidal effect Ec: 5 (at least 90% control)
Lambsquarters (Ch) [6]
  Herbicidal effect Ch: 5 (at least 90% control)
Slender amaranth (Am) [7]
  Herbicidal effect Am: 5 (at least 90% control)
[8]
  Herbicidal effect Ec: 5 (at least 90% control)
Slender amaranth (Am) [9]
  Herbicidal effect Am: 5 (at least 90% control)
Lambsquarters (Ch) [10]
  Herbicidal effect Ch: 5 (at least 90% control)

## COc1cc(OC)nc(Oc2cccc(OS(=O)(=O)C(F)(F)F)c2C(=O)O)n1 [compound 141]
Pale smartweed (Po) [1]
  Herbicidal effect Po: 5 (at least 90% control)
Rice flatsedge (Ci) [2]
  Herbicidal effect Ci: 5 (at least 90% control)
Pale smartweed (Po) [3]
  Herbicidal effect Po: 5 (at least 90% control)
Rice flatsedge (Ci) [4]
  Herbicidal effect Ci: 3 (at least 50% and less than 70%)
[5]
  Herbicidal effect Ec: 2 (at least 30% and less than 50%)
Lambsquarters (Ch) [6]
  Herbicidal effect Ch: 4 (at least 70% and less than 90%)
Slender amaranth (Am) [7]
  Herbicidal effect Am: 5 (at least 90% control)
[8]
  Herbicidal effect Ec: 2 (at least 30% and less than 50%)
Slender amaranth (Am) [9]
  Herbicidal effect Am: 5 (at least 90% control)
Lambsquarters (Ch) [10]
  Herbicidal effect Ch: 5 (at least 90% control)
